# Primary screen of a compound library

The chains behind the UniProt entries cited, without tags or fusion partners.
UniProt E9BF75, entry or part of it: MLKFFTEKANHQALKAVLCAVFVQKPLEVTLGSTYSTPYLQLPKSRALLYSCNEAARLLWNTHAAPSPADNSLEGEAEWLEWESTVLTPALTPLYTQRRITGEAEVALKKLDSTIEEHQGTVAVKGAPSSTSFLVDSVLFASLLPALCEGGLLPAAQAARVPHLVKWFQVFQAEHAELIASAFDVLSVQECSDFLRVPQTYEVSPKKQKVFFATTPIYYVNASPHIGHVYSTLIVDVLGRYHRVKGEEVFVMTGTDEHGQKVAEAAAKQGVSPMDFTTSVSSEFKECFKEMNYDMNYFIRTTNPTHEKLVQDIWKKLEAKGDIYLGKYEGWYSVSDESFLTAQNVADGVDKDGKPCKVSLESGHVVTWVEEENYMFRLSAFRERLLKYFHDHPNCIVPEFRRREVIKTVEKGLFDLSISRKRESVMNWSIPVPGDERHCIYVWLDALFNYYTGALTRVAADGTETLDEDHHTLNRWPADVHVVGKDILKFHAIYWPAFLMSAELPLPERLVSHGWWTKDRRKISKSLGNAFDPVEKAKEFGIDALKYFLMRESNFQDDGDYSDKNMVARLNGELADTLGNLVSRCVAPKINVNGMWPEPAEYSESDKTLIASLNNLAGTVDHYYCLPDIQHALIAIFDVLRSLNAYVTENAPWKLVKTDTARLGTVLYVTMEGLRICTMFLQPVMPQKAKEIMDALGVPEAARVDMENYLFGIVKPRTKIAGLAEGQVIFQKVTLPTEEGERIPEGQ

The values are deposited in ChEMBL (CHEMBL3988442, “University of Dundee, Small-Polar-MMV Screening Library” (2021)).

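Methionyl-tRNA synthetase (putative), Leishmania donovani (UniProt E9BF75). Primary screen of methionyl-tRNA synthetase; the read-out is not stated. The test concentration is not given. The values are filed as inhibition. Of about 68,000 compounds tested this way, about 24 (0.035%) reached 50% or more in at least one test.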

All values are in %.
How 0% and 100% were set is not recorded. Most values in the screen are low, and negative values occur.
Compounds were drawn at random from those tested, without regard to their results.

compound,inhibition
Fc1cnc(N2C[C@@H](OCC3CCOCC3)[C@H]3OCCC[C@H]32)nc1,14.03
COc1cccc(NC(=O)N2CC[C@@H]3CN(C)S(=O)(=O)[C@@H]3CC2)c1,-1.099
Cc1ccc(-n2nnnc2C2(NCc3ccco3)CCCC2)cc1,20.33
CC(C)OCc1nn(C)c2c1CCN(Cc1ccco1)C2,9.278
CN(C)c1ccc(C(=O)NCc2ccc(N3CCOCC3)cc2)cn1,2.842
CN(C)C(=O)NCc1cc2n(n1)CCCN(C[C@H]1[C@@H]3CNC[C@@H]31)C2,8.027
O=C1CC(NS(=O)(=O)NCc2ccccc2)CN1c1ccccc1Cl (centres unmarked),8.505
O=C(NCCCN1CCOCC1)c1ccc(Cl)cc1Cl,7.357
N#Cc1cccc(OCCN2CCCC2C(=O)Nc2nccs2)c1 (centres unmarked),18.23
COc1cc2c(cc1C1CC(=O)NCc3nc(N(C)C)sc31)CCC2 (centres unmarked),9.6
c1cncc(-c2nc(C3CC3)ncc2-c2ccnc(N3CCCC3)n2)c1,14.81
O=C(NCc1cn2cccnc2n1)C1CC(=O)N(Cc2cccnc2)C1 (centres unmarked),10.05
COC(=O)c1ccc(C(=O)N2CCC(c3nnc(C)s3)CC2)cc1,9.832
O=C(NCc1ccncc1)N1CCSCC1CCO (centres unmarked),7.33
O=C1NCCN1C1CCCN(Cc2coc(-c3cccs3)n2)C1 (centres unmarked),8.659
CCN1C[C@@H]2CN(Cc3cccs3)C[C@@H]2C1=O,6.667
CO[C@H]1COCCN(C(=O)c2cc(C)oc2C(F)(F)F)C1,3.846
CN(C)C(=O)CN1CCCC(CCCc2ccccn2)(C(N)=O)C1 (centres unmarked),4.688
CC(=O)N1CCN(C(=O)C(C)Nc2ccc3ncsc3c2)CC1 (centres unmarked),19.27
CCOc1cccc(NC(=O)c2cc(C)on2)n1,21.5
CCC(NC1CCN(C(=O)c2ccccc2)CC1)c1cccs1 (centres unmarked),13.76
COc1ccc2nc(O)c(CN(C)Cc3ncc[nH]3)cc2c1,6.03
CC(C(=O)NCc1ccnc(N2CCCCCC2)c1)n1cccn1 (centres unmarked),7.104
O=C(Cc1cccs1)N1C[C@@H]2CN(Cc3ccoc3)CCO[C@@H]2C1,18.68
Cc1cnc(N2CCc3c(cnc(C)c3C(=O)O)C2)nc1,10.1
c1cnc(N2CC[C@@H]3CN(Cc4ccncc4)CCO[C@@H]3C2)nc1,15.33
CN1CCC(n2nc(CC3CC3)nc2-c2ccc(F)cc2Cl)CC1,9.138
Cc1c[nH]nc1C1CCCN(C(=O)c2c(C)noc2C)C1 (centres unmarked),9.176
CCCc1n[nH]cc1C(=O)NCC1COc2cc(OC)ccc2C1 (centres unmarked),5.199
CSC1=Nc2c(cnn2-c2ccc(C)cc2)C2=NCCCN12,12.57
CN1CCC(Cc2cncc(-c3ccccc3C(=O)O)n2)C1 (centres unmarked),13.56
NC(=O)c1cccc(OCC(=O)NS(=O)(=O)c2ccc3c(c2)CCC3)c1,5.237
Cc1nc(CN2CCCCC2Cn2cncn2)nc2ccccc12 (centres unmarked),11.81
CCOc1c(Cl)cccc1NCc1cc(C)on1,5.521
COc1ccc(N2CCC(N(C)C(C)C(=O)N(C)C)CC2)cc1 (centres unmarked),5.245
Cc1nc(N2CCCC2)nc2c1CCN(C(=O)NC1CCCC1)CC2,12.97
CCC(=O)N1CCCC1c1n[nH]cc1-c1ccccc1F (centres unmarked),18.99
CC(c1ccon1)N(C)S(=O)(=O)NCc1ccccc1 (centres unmarked),22.86
Cc1nc(CCNC(Cc2ccncc2)C(F)(F)F)cs1 (centres unmarked),6.738
O=C(NC1CCS(=O)(=O)C1)c1ccc(SCc2cscn2)cc1 (centres unmarked),5.861
CC(=O)N(Cc1ncc(C)o1)C1CCN(Cc2cccnc2)C1 (centres unmarked),7.759
CCCN1CCN(Cc2cc3cc(OCC)ccc3[nH]c2=O)CC1,9.537
O=C(COCCc1ccccc1)N1CCCC(n2cncn2)C1 (centres unmarked),22.39

Once more, the final 3:

For CC(=O)N(Cc1ncc(C)o1)C1CCN(Cc2cccnc2)C1 (centres unmarked) the result was 7.759%.
For CCCN1CCN(Cc2cc3cc(OCC)ccc3[nH]c2=O)CC1 the result was 9.537%.
For O=C(COCCc1ccccc1)N1CCCC(n2cncn2)C1 (centres unmarked) the result was 22.39%.